The values below come from the supplement of paper PMC4604168 (melanoma cell lines).

Each structure is given as a SMILES string. The list shows a part of the results. Single values are uncertain, as repeats are few or missing.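 The apoptosis fraction was the count of cleaved-PARP antibody-stained nuclei relative to all DNA-stained nuclei, imaged in 1,536-well plates. Screening doses were set so most cells survived, and baseline and induced cleaved-PARP levels vary greatly across cell lines.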

The assay relates to 501Mel. Put plainly: cleaved PARP positive nuclei fraction relative to DMSO control; melanoma cells; higher = more apoptosis. Conditions: library dose: low library concentration; 72 h.
`CO[C@H]1C[C@@H]2CC[C@@H](C)[C@@](O)(O2)C(=O)C(=O)N2CCCC[C@H]2C(=O)O[C@H]([C@H](C)C[C@@H]2CC[C@@H](OCCO)[C@H](OC)C2)CC(=O)[C@H](C)/C=C(\C)[C@@H](O)[C@@H](OC)C(=O)[C@H](C)C[C@H](C)/C=C/C=C/C=C/1C` [everolimus] + O=C(Nc1cccc(Cl)c1)Nc1ncc(CCNc2ncnc3ccsc23)s1 [SNS314] (first compound 0.02 µM, partner dose 0.0008 µM): the “cleaved PARP positive nuclei fraction” value was determined as 141%.

With `O=C(O)c1ccc2c(c1)nc(Nc1cccc(Cl)c1)c1ccncc12` + NC(=O)Nc1cc(-c2cccc(F)c2)sc1C(=O)N[C@H]1CCCNC1 [AZD7762] (first compound 0.4 µM, partner dose 0.02 µM), the “cleaved PARP positive nuclei fraction” value was found to be 139%.

Regarding `Cn1c(=O)n(-c2ccc(C(C)(C)C#N)cc2)c2c3cc(-c4cnc5ccccc5c4)ccc3ncc21` + O=C(O)c1ccc(-c2c[nH]c3ncc(-c4ccccc4)cc23)cc1C1CCCC1 [GSK650394] (first compound 0.004 µM, partner dose 0.16 µM), the “cleaved PARP positive nuclei fraction” value was 200%.

Turning to `O=C(O)c1ccc2c(c1)nc(Nc1cccc(Cl)c1)c1ccncc12` + O=C(O)c1ccc(-c2c[nH]c3ncc(-c4ccccc4)cc23)cc1C1CCCC1 [GSK650394] (first compound 0.4 µM, partner dose 0.16 µM), the “cleaved PARP positive nuclei fraction” value came to 115%.

Take `CC(C)C[C@H](NC(=O)[C@H](Cc1ccccc1)NC(=O)c1cnccn1)B(O)O` [Bortezomib] + O=C(CCCCCCC(=O)Nc1ccccc1)NO [vorinostat] (first compound 0.001 µM, partner dose 0.08 µM): the “cleaved PARP positive nuclei fraction” value came to 224%.
